Results on two sequences are retold here after publication PMC11436757, “BRCA2 stabilises RAD51 and DMC1 nucleoprotein filaments through a conserved interaction mode” (Nature Communications, 2024).

The chains behind the UniProt entries cited, without tags or fusion partners.
UniProt Q06609, whole entry: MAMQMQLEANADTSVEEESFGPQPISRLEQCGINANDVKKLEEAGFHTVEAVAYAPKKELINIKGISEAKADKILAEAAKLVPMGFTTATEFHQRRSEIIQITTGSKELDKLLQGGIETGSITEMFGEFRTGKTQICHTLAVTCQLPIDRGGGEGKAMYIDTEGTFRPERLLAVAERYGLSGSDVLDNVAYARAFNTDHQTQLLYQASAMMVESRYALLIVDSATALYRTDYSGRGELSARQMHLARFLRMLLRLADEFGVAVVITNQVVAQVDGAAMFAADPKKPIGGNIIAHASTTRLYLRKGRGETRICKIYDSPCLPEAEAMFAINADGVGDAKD
UniProt Q06609, whole entry L180E: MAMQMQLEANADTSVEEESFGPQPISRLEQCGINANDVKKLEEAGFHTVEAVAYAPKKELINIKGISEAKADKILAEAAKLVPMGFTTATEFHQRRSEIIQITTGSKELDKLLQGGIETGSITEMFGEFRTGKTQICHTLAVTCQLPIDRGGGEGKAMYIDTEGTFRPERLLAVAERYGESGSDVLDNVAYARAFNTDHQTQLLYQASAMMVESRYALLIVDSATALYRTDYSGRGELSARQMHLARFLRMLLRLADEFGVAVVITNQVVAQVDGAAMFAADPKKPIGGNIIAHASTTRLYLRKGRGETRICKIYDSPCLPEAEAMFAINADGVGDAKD

For some assays here: No signal at the amounts used counts as a negative. For some assays here: Where a protein sequence is shown, tags need not be part of it. For some assays here: The exact form of at least one protein or probe is not confirmed. For some assays here: Weaker means in comparison with the reference protein, sequence or condition of that experiment. For some assays here: At least one verdict was read from the data and is not stated in words by the source.

In data set [1] the target is T1, DMC1 (Homo sapiens) (UniProt Q14565).
T1 sequence (looked up): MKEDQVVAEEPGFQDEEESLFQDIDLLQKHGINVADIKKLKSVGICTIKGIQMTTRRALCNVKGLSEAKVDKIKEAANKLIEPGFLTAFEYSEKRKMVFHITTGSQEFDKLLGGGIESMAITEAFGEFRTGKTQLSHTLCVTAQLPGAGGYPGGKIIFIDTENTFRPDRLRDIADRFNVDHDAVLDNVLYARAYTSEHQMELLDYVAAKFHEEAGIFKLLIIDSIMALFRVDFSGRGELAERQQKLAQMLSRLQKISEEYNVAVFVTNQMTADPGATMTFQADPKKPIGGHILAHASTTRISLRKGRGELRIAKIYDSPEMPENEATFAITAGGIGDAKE
Briefly: EMSA. The following applies: DMC1: 25 mM TEA (triethanolamine) pH 7.5, 200 mM KCl, 1 mM ATP, 2 mM MgCl2, 0.1 mg/ml BSA, 2 mM DTT, or 50 mM TAE pH 7.5, 2 mM ATP, 2 mM MgCl2, 2 mM DTT, recombinant protein, residues 1-340, protein details: His6 removed by TEV, label: 5'-FAM, single-stranded DNA. For orientation: A gel shift assay detects complexes by their altered migration in electrophoresis.

The target in data set [2] is RAD51 (UniProt Q06609). In words: EMSA. The following applies: 2 mM ATP, 0.5 mM Mg2+, no BRC4, DMC1: 25 mM TEA (triethanolamine) pH 7.5, 200 mM KCl, 1 mM ATP, 2 mM MgCl2, 0.1 mg/ml BSA, 2 mM DTT, or 50 mM TAE pH 7.5, 2 mM ATP, 2 mM MgCl2, 2 mM DTT, recombinant protein, residues 1-339, single-stranded DNA.
In data set [3] the target is RAD51 L180E (UniProt Q06609). Briefly: EMSA. The following applies: 2 mM ATP, 0.5 mM Mg2+, no BRC4, DMC1: 25 mM TEA (triethanolamine) pH 7.5, 200 mM KCl, 1 mM ATP, 2 mM MgCl2, 0.1 mg/ml BSA, 2 mM DTT, or 50 mM TAE pH 7.5, 2 mM ATP, 2 mM MgCl2, 2 mM DTT, recombinant protein, residues 1-339, single-stranded DNA.
The subject of data set [4] is DMC1 + BRCA2 Ex14-Tr. In words: EMSA super-shift. The settings on record: TEA + KCl, ATP, Mg2+, text: failed to super-shift, legend: largely eliminated; DMC1: 25 mM TEA (triethanolamine) pH 7.5, 200 mM KCl, 1 mM ATP, 2 mM MgCl2, 0.1 mg/ml BSA, 2 mM DTT, or 50 mM TAE pH 7.5, 2 mM ATP, 2 mM MgCl2, 2 mM DTT; recombinant protein; protein details: His6 removed by TEV; label: 5'-FAM; single-stranded DNA.

The target of data set [5] is T1, DMC1 (Homo sapiens). In words: EMSA, BRC4 protection. The following applies: TEA + KCl, Ex14-AAA + BRC4, protection largely or completely abrogated; DMC1: 25 mM TEA (triethanolamine) pH 7.5, 200 mM KCl, 1 mM ATP, 2 mM MgCl2, 0.1 mg/ml BSA, 2 mM DTT, or 50 mM TAE pH 7.5, 2 mM ATP, 2 mM MgCl2, 2 mM DTT; recombinant protein; residues 1-340; protein details: His6 removed by TEV; label: 5'-FAM; single-stranded DNA.

Data set [6] relates to DMC1 + BRCA2 Ex14-Tr. In words: EMSA, BRC4 protection. The settings on record: TEA + KCl, Ex14-Tr + BRC4, protection mostly lost; DMC1: 25 mM TEA (triethanolamine) pH 7.5, 200 mM KCl, 1 mM ATP, 2 mM MgCl2, 0.1 mg/ml BSA, 2 mM DTT, or 50 mM TAE pH 7.5, 2 mM ATP, 2 mM MgCl2, 2 mM DTT; recombinant protein; protein details: His6 removed by TEV; label: 5'-FAM; single-stranded DNA.

Data set [7] deals with RAD51 (UniProt Q06609). In words: EMSA, BRC4 protection. The following applies: DMC1: 25 mM TEA (triethanolamine) pH 7.5, 200 mM KCl, 1 mM ATP, 2 mM MgCl2, 0.1 mg/ml BSA, 2 mM DTT, or 50 mM TAE pH 7.5, 2 mM ATP, 2 mM MgCl2, 2 mM DTT, recombinant protein, residues 1-339, single-stranded DNA.
Data set [8] addresses RAD51 L180E (UniProt Q06609). In words: EMSA, BRC4 protection. The following applies: DMC1: 25 mM TEA (triethanolamine) pH 7.5, 200 mM KCl, 1 mM ATP, 2 mM MgCl2, 0.1 mg/ml BSA, 2 mM DTT, or 50 mM TAE pH 7.5, 2 mM ATP, 2 mM MgCl2, 2 mM DTT, recombinant protein, residues 1-339, single-stranded DNA.
Data set [9] addresses T1, DMC1 (Homo sapiens). Briefly: EMSA, disruption by BRC4. The following applies: TEA + KCl, 5-fold excess BRC4 (1519-1551), completely disrupted; DMC1: 25 mM TEA (triethanolamine) pH 7.5, 200 mM KCl, 1 mM ATP, 2 mM MgCl2, 0.1 mg/ml BSA, 2 mM DTT, or 50 mM TAE pH 7.5, 2 mM ATP, 2 mM MgCl2, 2 mM DTT; recombinant protein; residues 1-340; protein details: His6 removed by TEV; label: 5'-FAM; single-stranded DNA.

In data set [10] the target is RAD51 (UniProt Q06609). Briefly: EMSA, disruption by BRC4. The following applies: DMC1: 25 mM TEA (triethanolamine) pH 7.5, 200 mM KCl, 1 mM ATP, 2 mM MgCl2, 0.1 mg/ml BSA, 2 mM DTT, or 50 mM TAE pH 7.5, 2 mM ATP, 2 mM MgCl2, 2 mM DTT, recombinant protein, residues 1-339, single-stranded DNA.
For data set [11], the target named is RAD51 L180E (UniProt Q06609). Briefly: EMSA, disruption by BRC4. The following applies: BRC4, similar disruption to wild type; DMC1: 25 mM TEA (triethanolamine) pH 7.5, 200 mM KCl, 1 mM ATP, 2 mM MgCl2, 0.1 mg/ml BSA, 2 mM DTT, or 50 mM TAE pH 7.5, 2 mM ATP, 2 mM MgCl2, 2 mM DTT; recombinant protein; residues 1-339; label: 5'-FAM; single-stranded DNA.
Where [12] appears, read: label: none (SYBR Gold post-stain).

“AATTCTCATTTTACTTACCGGACGCTATTAGCAGTGGGTGAGCAAAAACAGGAAGGCAAAATGCCGCAAAAAAGGGAATAAGGGCGACACGGAAATGTTG [100-nt random-sequence ssDNA]”: the binding result with DMC1 (Homo sapiens) [1] (TAE + Ex14-AAA, largely failed to stimulate, some at high concentration) was “binds more weakly”; with DMC1 (Homo sapiens) [1] (TAE pH 7.5, 2 mM ATP, 2 mM Mg2+, incomplete at 3 nt per protomer), “binds more weakly”; with RAD51 [2] (50 mM TEA, label: 5'-FAM) it was “binds”; in the data set with RAD51 L180E [3] (50 mM TEA, label: 5'-FAM) it was “binds”; in the data set on DMC1 + BRCA2 Ex14-Tr [4] it was “binds more weakly”; with DMC1 (Homo sapiens) [5], “binds more weakly”. The binding result in the data set with DMC1 + BRCA2 Ex14-Tr [6] is “binds more weakly”; in the data set with RAD51 [7] (Ex27-AAA (legend: Ex14-AAA, sites printed F3298A/P3300A/P3301A or F3308A/P3310A/P3311A) + BRC4, not protected, label: 5'-FAM) it was “binds more weakly”; with RAD51 L180E [8] (Ex27 + BRC4, not protected, label: 5'-FAM), “binds more weakly”; with DMC1 (Homo sapiens) [9] it was “no binding”; with RAD51 [10] (equimolar BRC4 disrupts, label: 5'-FAM), “binds more weakly”; with RAD51 L180E [11], “binds more weakly”.

As to “TTTTTTTTTTTTTTTTTTTTTTTTTTTTTTTTTTTTTTTTTTTTTTTTTTTTTTTTTTTTTTTTTTTTTTTTTTTTTTTTTTTTTTTTTTTTTTTTTTTT [100-nt poly(dT)]”, the binding result was “binds” with RAD51 [2] (setting [12]); “binds” with RAD51 L180E [3] (setting [12]); “binds more weakly” with RAD51 [7] (Ex27-AAA + BRC4, protection abrogated, label: none (SYBR Gold post-stain)); “binds more weakly” in the data set with RAD51 L180E [8] (Ex27 + BRC4, protection abrogated, label: none (SYBR Gold post-stain)); “binds more weakly” with RAD51 [10] (stoichiometric excess BRC4 disrupts, label: none (SYBR Gold post-stain)).
